# Test results as given in PubChem BioAssay AID1347076 (National Center for Advancing Translational Sciences (NCATS), 2019).
# Hit rate of the full screen: of about 400,000 compounds, about 13,000 (3.2%) were called active. Inconclusive results, whose numbers are uncertain, are shown with a selection of clear calls. Calls follow the shape of the dose curve; as a rule, active = well fitted cell-killing curve with a large enough effect; inconclusive = small, poorly fitted or top-dose-only effect, or effect the other way; inactive = flat fitted curve, though single readings scatter. Potencies beside an inconclusive call are fits to weak or partial responses and may not hold up.
# Assay: qHTS assay for MDR1-selective chemotherapeutics: Primary screen using the drug-selected MDR subline cells KB-V1; also: nearly all actives have a fitted effect of over 60% in size
# Conditions: KB-V1 MDR cells viability, CellTiter-Glo, 72 h; activity change, negative = cytotoxicity: at 46.1 µM (top of the series)
# Summary of the method: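 In this primary screen, KB-V1 cells overexpressing P-gp are incubated with library compounds (lowest to highest concentration) for 72 h at 37 degrees C before a luminescent ATP viability read.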
# % is scaled to controls: 0 for no effect and ±100 for the full control effect; potency is read from the fitted curve at half-maximal effect.
Compound,Potency,"activity change, negative = cytotoxicity"
O=C(Cc1ccc(NC(=O)C2CCN(C(=O)C3CC3)CC2)cc1)Nc1cccc(C(=O)N2CCCC2)c1,inactive,
CC(C)CC(=O)N1CCN(C(=O)c2ccc(F)cc2)CC1,"inconclusive: 29.1 µM [rising, single point]",
COCCCNC(=O)c1ccc(Cn2c(=O)c3ccccc3n(Cc3c(C)cc(C)cc3C)c2=O)cc1,inactive,
Clc1ccc(OCCCCCN2CCCC2)c(Br)c1,"inconclusive: 20.6 µM [cytotoxic, single point]",
COc1cc(NC(=O)CCC2CCCC2)cc(-n2cnnn2)c1,active: 20.6 µM,
CC1CCN(C(=O)COC(=O)c2cc(Cl)c3c(c2)OCO3)CC1,active: 20.6 µM,
O=c1cnn([C@@H]2O[C@H](CO)[C@@H](O)[C@H]2O)c(=O)[nH]1,active: 4.11 µM,
O=C(COc1ccccc1Cl)Nc1ccc2c(c1)C(=O)NC2=O,inactive,
CCOc1ccccc1NC(=O)CSc1nccn1-c1cccc(C)c1,"inconclusive: 29.1 µM [cytotoxic, partial curve, poor fit]",
COc1cccc(Cn2cnc(-c3ccccc3OC)c2-c2cccs2)c1,inactive,
N#Cc1c(-c2ccc(F)cc2)c(-c2ccc(F)cc2)nn(CCO)c1=O,active: 8.2 µM,
CCOc1ccc(C2CC(=O)c3c([nH]c(C(=O)OCC4CCCCC4)c3C)C2)cc1 (configuration not stated),inactive,
COC(=O)C1=C(O)C(C(=O)OC)C(c2ccc(C)cc2)C(C#N)(C#N)C1c1ccc(C)cc1 (configuration not stated),"inconclusive: 0.206 µM [cytotoxic, full curve, poor fit]",
COc1ccccc1CNC(=O)CSc1ccc(C(=O)Nc2ccccc2OC)cc1[N+](=O)[O-],inactive,
COC(=O)c1ccc(OCC(O)CN2CCOCC2)cc1 (configuration not stated),"inconclusive: 20.6 µM [rising, single point]",
COC(=O)c1cc2c(ccn2-c2ccc(F)cc2)n1CC(=O)N1CCN(C(=O)c2ccco2)CC1,"inconclusive: 35.5 µM [cytotoxic, single point]",
O=C(O)c1ncc(Cl)c(Cl)c1Cl,,inconclusive: -6.82%
CSc1nc(SCC(=O)NCc2ccco2)c2c3c(sc2n1)CN(C)CC3,"inconclusive: 20.6 µM [cytotoxic, single point]",
CCCc1cc(=O)oc2cc(C)c3c(-c4ccccc4)coc3c12,"inconclusive: 16.4 µM [cytotoxic, single point]",
C(=C\c1ccccc1)/CN1CCN(C(c2cccs2)c2nnnn2-c2ccc3c(c2)OCCO3)CC1 (configuration not stated),"inconclusive: 29.1 µM [cytotoxic, single point]",
S=C(Nc1ccccc1Cl)N(Cc1cccnc1)Cc1ccco1,"inconclusive: 14.6 µM [cytotoxic, partial curve]",
CCCCNC(=S)Nc1ccc(SC(F)F)cc1,"inconclusive: 13 µM [cytotoxic, partial curve]",
CCOc1ccccc1N1CCN(C(=O)c2ccccc2SCC(=O)N2CCCC2)CC1,"inconclusive: 8.2 µM [cytotoxic, partial curve]",
COc1cccc(NC(=O)C(Cc2ccccc2)NS(=O)(=O)c2ccc3c(c2)c(=O)n(C)c(=O)n3C)c1 (configuration not stated),"inconclusive: 29.1 µM [rising, single point]",

Compound,Potency,"activity change, negative = cytotoxicity"
CN1CCCN(C(=O)Cc2c(Cl)cccc2Cl)c2nc3ccccc3nc21,inactive,
CC(=O)Nc1cc(-c2cccc(NS(C)(=O)=O)c2)cn2c(-c3ccc(F)c(Cl)c3)cnc12,"inconclusive: 29.1 µM [cytotoxic, single point]",
CC(=O)OCCc1c2ccccc2c(CCCN(C)C)c2ccccc12,inactive,
C[C@@H]1CN([C@@H](C)CO)C(=O)CCCn2nncc2CO[C@H]1CN(C)Cc1ccc(Cl)c(Cl)c1,inactive,
O=C(NCCc1ccc(Cl)cc1)c1cc(S(=O)(=O)N2CCCCC2)c[nH]1,inactive,
COc1ccc(C2=C(C=O)Cc3ccccc3O2)cc1,"inconclusive: 29.1 µM [cytotoxic, single point]",
CN(C)CC/C=C1\c2cc(F)ccc2CSc2ccccc21,active: 20.6 µM,
CS(=O)(=O)N(CC(=O)NCCSC1CCCCC1)c1ccc2c(c1)OCO2,active: 18.4 µM,
COc1cccc(-c2ccc(SCC(=O)N3CCOCC3)nn2)c1,"inconclusive: 14.6 µM [cytotoxic, single point]",
Cc1ccc(NC(=O)N2CCC(C(=O)c3ccc(F)cc3)CC2)cc1,active: 23.1 µM,
O=C(C/C=N\OCc1ccc([N+](=O)[O-])cc1)Nc1ccc(Cl)cc1,inactive,
CCCNC(=O)CN1C(=O)CSc2ccc(S(=O)(=O)N3CCC(C)CC3)cc21,inactive,
COc1ccc(CNC(=O)CC2C(=O)NCCN2CC(C)(C)C)c(OC)c1 (configuration not stated),"inconclusive: 13 µM [cytotoxic, single point]",
COc1ccc2oc(C(=O)Nc3nc(C)cs3)c(C)c2c1,"inconclusive: 29.1 µM [cytotoxic, single point]",
COc1cccc(/C=N/NC(=O)c2nc(-c3ccccc3)cc(-c3ccccc3)n2)c1,"inconclusive: 16.4 µM [cytotoxic, single point]",
O=C(Oc1ccc(/C=N/Nc2ccccc2)cc1)c1ccccc1,inactive,
COc1ccc(S(=O)(=O)Nc2ccc3oc(C)c(C(C)=O)c3c2)cc1,active: 2.59 µM,
O=C1CC(N2CCN(S(=O)(=O)c3ccccc3F)CC2)C(=O)N1c1ccccc1F (configuration not stated),"inconclusive: 6.51 µM [rising, full curve, poor fit]",
CN(C)S(=O)(=O)Oc1ccsc1C(=O)Nc1cccc(Cl)c1Cl,active: 20.6 µM,
CCOc1ccc(N2CC(C(=O)Nc3cc(S(=O)(=O)N4CCCCC4)ccc3C)CC2=O)cc1 (configuration not stated),active: 18.4 µM,
Cc1ccc(NC(=O)N2CCN(Cc3ccc4c(c3)OCO4)CC2)cc1,active: 20.6 µM,
c1ccc(C2Oc3ccccc3C3CC(c4cccs4)=NN32)cc1 (configuration not stated),"inconclusive: 29.1 µM [cytotoxic, single point]",
O=C(NCc1ccncc1)[C@@H]1CCCN1C(=O)[C@@H]1CCCN1,"inconclusive: 0.013 µM [rising, full curve]",
Cc1ccc(Nc2c(C(C)C)c(C)c(C#N)c3nc4ccccc4n23)cc1,inactive,

# Shown tab-delimited: 3 of the compounds above.
Compound	Potency	activity change, negative = cytotoxicity
CCCNC(=O)CN1C(=O)CSc2ccc(S(=O)(=O)N3CCC(C)CC3)cc21	inactive	
COc1cccc(/C=N/NC(=O)c2nc(-c3ccccc3)cc(-c3ccccc3)n2)c1	inconclusive: 16.4 µM [cytotoxic, single point]	
Cc1ccc(Nc2c(C(C)C)c(C)c(C#N)c3nc4ccccc4n23)cc1	inactive	

# Remaining list, next part.

Compound,Potency,"activity change, negative = cytotoxicity"
CC(Oc1ccc2c(-c3ccccc3)cc(=O)oc2c1)C(=O)NCc1ccccn1 (configuration not stated),"inconclusive: 32.6 µM [cytotoxic, single point]",
CN(C)c1nc(NNC(=O)c2ccccc2)nc(N(C)C)n1,active: 8.2 µM,
CCc1ccc(-c2cc(C)no2)cc1S(=O)(=O)N1CCCN(Cc2ccc(F)cc2)C1,"inconclusive: 29.1 µM [cytotoxic, single point]",
CS(=O)(=O)Nc1cccc(NC(=O)c2cccc3c(-c4cccnc4)coc23)c1,inactive,
O=C(CCCCCNc1nc(=S)[nH]c2ccccc12)NCCc1c[nH]c2ccccc12,"inconclusive: 18.4 µM [cytotoxic, single point]",
O=C(CCc1ccccc1)NNC(=S)NC(=O)c1ccc(Cl)cc1,"inconclusive: 29.1 µM [cytotoxic, single point]",
COc1ccc(/C=C/c2c(-c3ccc(OC)cc3)oc3ccccc23)cc1,inactive,
COc1ccc2c(c1)CCc1c(C(=O)Nc3c(C)nn(Cc4ccccc4)c3C)noc1-2,"inconclusive: 2.31 µM [cytotoxic, full curve]",
Cc1ccccc1-c1noc(-c2ccc(NCc3ccco3)c([N+](=O)[O-])c2)n1,"inconclusive: 16.4 µM [rising, partial curve]",
CCCCc1ccc(NC(=S)N2CCC(O)CC2)cc1,"inconclusive: 1.03 µM [rising, full curve, poor fit]",
Cc1ccccc1CC1(CO)CCCN(C(=O)CCC(=O)c2ccccc2)C1 (configuration not stated),"inconclusive: 13 µM [cytotoxic, partial curve]",
O=C(NCCOc1cccc(Cl)c1Cl)c1cc(-n2cnnc2)ccc1Cl,inactive,
COc1ccc(CCNC(=O)N2c3ccccc3Sc3ccccc32)cc1,"inconclusive: 20.6 µM [cytotoxic, single point]",
CCOc1ncccc1C(=O)N1CCN(c2cc(Cl)ccc2C)CC1,active: 0.82 µM,
CC(OC(=O)c1cc(S(=O)(=O)N2CCOCC2)ccc1F)C(=O)NC1CCCC1 (configuration not stated),"inconclusive: 3.26 µM [rising, partial curve, poor fit]",
COc1ccccc1N1CCN(c2ncnc3n[nH]c(Br)c23)CC1,"inconclusive: 20.6 µM [cytotoxic, partial curve, poor fit]",
COc1c(C)cc(C(O)c2ncc(-c3cccc4ccccc34)[nH]2)cc1C (configuration not stated),inactive,
CCCn1c(NC(=O)c2cccc(S(=O)(=O)N3CCCC3)c2)nc2ccccc21,active: 16.4 µM,
Cc1cc(Br)ccc1OCCN1CC(C)OC(C)C1 (configuration not stated),"inconclusive: 11.6 µM [cytotoxic, partial curve]",
O=C(Nc1ccc2c(c1)OCCO2)c1ccc(Br)cc1,,inconclusive: -7.28%
CSc1ccc(-c2nc3cccc(C)n3c2Nc2ccc(Cl)cc2)cc1,"inconclusive: 25.9 µM [cytotoxic, single point]",
O=C(c1ccccc1)c1cc(F)c(N2CCOCC2)cc1Cl,"inconclusive: 14.6 µM [cytotoxic, single point]",
O=C(NCCc1ccccc1)c1cc(-c2ccncc2)nc2ccc(S(=O)(=O)N3CCOCC3)cc12,"inconclusive: 9.2 µM [rising, partial curve, poor fit]",
O=C1CN(C(=O)COc2ccc(Cl)cc2Cl)C(c2ccccc2)c2cc(F)ccc2N1 (configuration not stated),"inconclusive: 18.4 µM [cytotoxic, partial curve]",
